Assay results: patent US9095565B2, “Methods for treating blood disorders” (Phoenicia Biosciences, Inc., priority 2006, dated 2015)
Some entries share one result that the patent states for a list of compounds.

Assay: Pharmacokinetic profiles in anemic juvenile baboons (plasma levels by HPLC-MS)
Format: in vivo
Settings: baboon
Description: Juvenile baboons were catheterized with venous and arterial catheters, and were phlebotomized a set amount of blood daily to maintain anemia with a hemoglobin level of 7.0-7.5 g/dl, from a baseline normal hemoglobin level of (12-13 g/dl). Normal saline was infused to replace the amount of blood withdrawn. This degree of phlebotomy exchanges the blood volume every 10-20 days. Following establishment of the stable level of anemia, a test compound was administered once/day, either intravenously or orally, and blood was withdrawn through the arterial catheter for analysis of globin mRNA or for analysis of the test compound in the plasma by HPLC-MS. Pharmacokinetic profiles were established from the plasma levels and oral bioavailability (comparing area under the curve between IV and oral plasma levels) was determined for the test compounds.

Row | Compound | time compound persists well above therapeutic levels (single oral dose 100 mg/kg) [h] | further results
1 | COc1cc(OC)nc(SC(C(=O)O)C(C)C)n1 (racemic) [Compound Y] |  | time compound persists well above therapeutic levels (single oral dose 10 mg/kg): > 8 h
2 | Cc1cc2c(C(=O)O)cccc2o1 [2-methyl-1-benzofuran-4-carboxylic acid] | > 8 | 
3 | CCC(Nc1ncnc2ccccc12)C(=O)O (centres unmarked) [Compound M] | > 8 | 
4 | O=C(O)c1cccc(-c2cc3ccccc3oc2=O)c1 [Compound P] |  | time compound persists well above therapeutic levels (single oral dose 25 mg/kg): > 8 h
5 | O=C(O)c1cccc(Cn2cc([N+](=O)[O-])cn2)c1 [Compound W] | > 8 | 
